The target of one assay is AKT1 WT (Homo sapiens, UniProt P31749). The assay can be described thus: Live cell AKT1 WT target engagement by NanoBRET competitive probe displacement. The settings on record: read-out: AKT1 WT IC50, HEK293 cells transfected with kinase-NanoLuciferase fusion, 2 h at 37° C. The protocol: (§1) Determining Live Cell AKT1 E17K, AKT1 WT, and AKT2 Target Engagement by NanoBRET Competitive Probe Displacement.
(§2) Live cell target engagement assays were performed as described (Vasta, J. D. et al. Cell Chem Biol 2018, 25(11), 206-214). Briefly, HEK293 cells were transfected with plasmids encoding kinase-NanoLuciferase fusion proteins overnight. Cells were then treated with serial dilutions of compound and an ˜EC50 concentration of fluorescently-tagged ATP-competitive tracer (Promega). After incubation for 2 h at 37° C., luciferase substrate and extracellular luciferase inhibitor were added to all wells, and luminescent intensity at 460 nm and 600 nm were measured on a multimode plate-reader. The ratio of E600/E460 was calculated to give the tracer engagement signal (BRET). IC50 values were calculated by fitting BRET values to a log(inhibitor) vs. response Hill equation.
Background: BRET reads energy transfer from a luciferase to a nearby fluorophore.

The chains behind the UniProt entries cited, without tags or fusion partners. Where a name states a change or a piece, a line headed by the entry shows the natural chain unless it says otherwise.
UniProt P31749, whole entry: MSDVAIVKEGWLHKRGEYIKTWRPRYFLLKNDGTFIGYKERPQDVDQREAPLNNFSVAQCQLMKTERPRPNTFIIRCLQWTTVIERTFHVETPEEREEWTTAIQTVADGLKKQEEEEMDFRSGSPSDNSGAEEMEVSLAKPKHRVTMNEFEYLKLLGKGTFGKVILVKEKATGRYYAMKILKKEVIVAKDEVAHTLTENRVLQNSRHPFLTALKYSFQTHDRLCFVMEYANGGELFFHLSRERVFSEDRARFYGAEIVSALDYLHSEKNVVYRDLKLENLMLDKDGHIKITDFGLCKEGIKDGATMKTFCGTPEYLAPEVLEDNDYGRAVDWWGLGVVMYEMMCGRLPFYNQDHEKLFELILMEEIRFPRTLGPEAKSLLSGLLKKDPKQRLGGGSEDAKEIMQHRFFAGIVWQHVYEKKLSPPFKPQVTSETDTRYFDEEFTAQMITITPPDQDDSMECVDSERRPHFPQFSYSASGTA
UniProt P31749, whole entry E17K: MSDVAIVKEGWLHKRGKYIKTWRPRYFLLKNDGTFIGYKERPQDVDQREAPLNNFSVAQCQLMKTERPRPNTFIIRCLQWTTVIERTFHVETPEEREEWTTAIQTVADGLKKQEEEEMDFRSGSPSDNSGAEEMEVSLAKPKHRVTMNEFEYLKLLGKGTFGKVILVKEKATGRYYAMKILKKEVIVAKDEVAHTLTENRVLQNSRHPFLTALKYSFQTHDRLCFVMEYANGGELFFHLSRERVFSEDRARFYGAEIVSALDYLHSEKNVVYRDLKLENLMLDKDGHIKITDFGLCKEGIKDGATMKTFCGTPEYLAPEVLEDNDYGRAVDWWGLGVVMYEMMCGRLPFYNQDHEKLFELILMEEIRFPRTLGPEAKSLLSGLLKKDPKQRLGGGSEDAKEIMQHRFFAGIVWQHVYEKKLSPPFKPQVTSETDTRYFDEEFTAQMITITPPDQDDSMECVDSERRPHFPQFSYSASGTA
UniProt P31751, whole entry: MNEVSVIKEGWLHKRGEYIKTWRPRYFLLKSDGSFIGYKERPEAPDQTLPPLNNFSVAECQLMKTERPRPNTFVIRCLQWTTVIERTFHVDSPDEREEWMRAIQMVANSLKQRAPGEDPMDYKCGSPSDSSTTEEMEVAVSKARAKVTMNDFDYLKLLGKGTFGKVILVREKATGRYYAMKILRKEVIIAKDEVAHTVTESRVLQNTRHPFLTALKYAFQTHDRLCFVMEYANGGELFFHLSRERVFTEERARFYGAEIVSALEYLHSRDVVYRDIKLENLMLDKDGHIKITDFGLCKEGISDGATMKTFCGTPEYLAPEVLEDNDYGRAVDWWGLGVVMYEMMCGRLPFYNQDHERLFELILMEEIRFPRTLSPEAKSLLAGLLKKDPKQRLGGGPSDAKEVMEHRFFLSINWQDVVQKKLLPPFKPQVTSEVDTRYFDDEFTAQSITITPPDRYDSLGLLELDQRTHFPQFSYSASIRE

In a further assay the target is AKT1 E17K (Homo sapiens, UniProt P31749, E17K). The assay can be described thus: Live cell AKT1 E17K target engagement by NanoBRET competitive probe displacement. As to conditions: read-out: AKT1 E17K IC50, HEK293 cells transfected with kinase-NanoLuciferase fusion, 2 h at 37° C. The protocol:
as §1, §2

Assay [1] has as its system LAPC4 prostate cancer cells. As to the kind of experiment: Antiproliferative effects in LAPC4 cells (CellTiter Glo). As to conditions: read-out: LAPC4 proliferation IC50, LAPC4 cells (AKT1 E17K allele), 72 h. On the procedure:
Antiproliferative Effects in LAPC4 Cells.
LAPC4 prostate cancer cells (Klein, K. A. et al. Nat Med 1997, 3, 402-408), which express the AKT1 E17K allele, were grown in IMDM media (Hyclone) supplemented with 12% FBS+1% P/S. To assess compound effects on growth, 1,000 cells/well were seeded in 384 well assay plates, incubated with compound dilutions dissolved in DMSO. After 72 h, intracellular ATP content was assessed with CellTiter Glo reagent (Promega) according to the manufacturer's instructions. IC50 values were calculated by fitting luminescence values to a log(inhibitor) vs. response Hill equation.
Background: In ATP-based viability assays light output follows the ATP content of the culture.

A further assay deals with AKT2 (Homo sapiens, UniProt P31751). The assay can be described thus: Live cell AKT2 target engagement by NanoBRET competitive probe displacement. The settings on record: read-out: AKT2 IC50, HEK293 cells transfected with kinase-NanoLuciferase fusion, 2 h at 37° C. On the procedure:
as §1, §2

The match of structure and compound is tentative.

On to `C=CC(=O)N1CCC(N[C@H]2CCc3cc(-n4c(-c5cccnc5N)nc5ccc(-n6ccc(C(F)F)n6)nc54)ccc32)CC1`, for which the IC50 on AKT1 WT worked out at 215 nM; at AKT1 E17K it was 16.7 nM; in assay [1], 161 nM; on AKT2, 69.9 nM.

The record behind these values is patent US12570655B2, “Cysteine covalent modifiers of AKT1 and uses thereof” (Terremoto Biosciences, Inc., priority 2023, dated 2026).
